These are yes or no findings as the source states them, for the method shown. Some results given as binding are weak or reduced against the parent protein; the word gives no strength.
B1: Zanolimumab (antibody, V domains shown)
VH: QVQLQQWGAGLLKPSETLSLTCAVYGGSFSGYYWSWIRQPPGKGLEWIGEINHSGSTNYNPSLKSRVTISVDTSKNQFSLKLSSVTAADTAVYYCARVINWFDPWGQGTLVT
VL: DIQMTQSPSSVSASVGDRVTITCRASQDISSWLAWYQHKPGKAPKLLIYAASSLQSGVPSRFSGSGSGTDFTLTISSLQPEDFATYYCQQANSFPYTFGQGTKLEIK
B2: Tregalizumab (antibody, V domains shown)
VH: EEQLVESGGGLVKPGGSLRLSCAASGFSFSDCRMYWLRQAPGKGLEWIGVISVKSENYGANYAESVRGRFTISRDDSKNTVYLQMNSLKTEDTAVYYCSASYYRYDVGAWFAYWGQGTLVTVSS
VL: DIVMTQSPDSLAVSLGERATINCRASKSVSTSGYSYIYWYQQKPGQPPKLLIYLASILESGVPDRFSGSGSGTDFTLTISSLQAEDVAVYYCQHSRELPWTFGQGTKVEIKR

Experiments:
[1] = target: CD4-Fc protein (human) (UniProt P01730); experiment: Biacore epitope binning with CD4-Fc; competitors Ibalizumab and Tregalizumab
[2] = target: CD4-Fc protein (human) (UniProt P01730); experiment: epitope binning, Zanolimumab fixed on the sensor, 100nM hCD4-Fc in solution (text: Biacore; axis: Response(nm)); blank sensor flat
[3] = target: CD4-Fc protein (human) (UniProt P01730); experiment: epitope binning, Tregalizumab fixed on the sensor, 100nM hCD4-Fc in solution (text: Biacore; axis: Response(nm)); blank sensor flat
[4] = target: hybrid CD4: mouse CD4 backbone with human CD4 domain 2 (mouse; human) (UniProt P06332); experiment: flow cytometry on HEK293-6E cells expressing mouse CD4 with human domain 2, isotype control as reference
[5] = target: hybrid CD4: mouse CD4 backbone with human CD4 domain 2 (mouse; human) (UniProt P06332); experiment: flow cytometry on HEK-293 cells expressing mouse CD4 with a human CD4 domain

Row | Binder | binding [1] | binding [2] | binding [3] | binding [4] | binding [5]
1 | B1 | binds | binds |  |  | 
2 | B2 |  |  | binds | binds | binds
